Laboratory results reported in US20140349989A1, “COMPOUNDS AND THERAPEUTIC USES THEREOF” (Alzheimer's Institute of America, priority 2011, published 2014).
Some results were stated once for a whole list of compounds, not compound by compound.

Sequences of proteins named here, by UniProt entry; tags and fusion partners are left off. A change or cut given only in a name is not applied to a line headed by its entry.
UniProt P43490: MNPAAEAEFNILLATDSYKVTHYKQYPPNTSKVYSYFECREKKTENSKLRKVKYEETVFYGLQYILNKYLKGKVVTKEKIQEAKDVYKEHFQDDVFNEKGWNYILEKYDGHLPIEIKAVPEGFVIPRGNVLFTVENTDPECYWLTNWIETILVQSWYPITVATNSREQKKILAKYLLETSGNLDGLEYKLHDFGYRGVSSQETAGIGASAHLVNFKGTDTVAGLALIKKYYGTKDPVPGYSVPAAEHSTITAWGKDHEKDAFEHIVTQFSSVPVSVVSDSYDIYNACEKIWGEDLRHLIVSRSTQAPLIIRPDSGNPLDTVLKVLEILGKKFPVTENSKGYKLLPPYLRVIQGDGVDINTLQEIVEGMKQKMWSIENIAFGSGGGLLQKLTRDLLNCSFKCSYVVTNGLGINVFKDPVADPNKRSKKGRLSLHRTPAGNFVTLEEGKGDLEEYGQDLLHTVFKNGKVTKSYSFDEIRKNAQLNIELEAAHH

Target: T1, Human NAMPT (Homo sapiens, UniProt P43490)
T1 construct: 6xHis (N); made in house; host or cells: E. coli BL21-AI
Assay: Nampt Activity Assay (coupled enzyme fluorometric, resazurin/diaphorase)
Type: biochemical
Details: His-tagged human NAMPT, 3 μM NAM, 8 μM PRPP, room temperature up to 3 hours; read-out: in vitro IC50 (Nampt catalytic activity)
Source text: 5-phosphoribosyl-1-pyrophosphate (PRPP), ATP, NaM, NaMN, Triton X-100, UDP-glucose and diaphorase were purchased from Sigma-Aldrich, St. Louis, Mo. Human NAMPT, NMN adenylyltransferase (NMNAT1) and UDP-glucose dehydrogenase (UGDH) encoding DNAs were each inserted into a house-modified E. Coli expression vector such that the expressed proteins carried an N-terminal 6×His tag. The His-tagged proteins were expressed in the BL21-AI E. Coli expression strain (Invitrogen Corporation, Carlsbad, Calif.) following induction by 0.2% L-arabinose and 0.5 mM IPTG at 30° C. Proteins were purified on Ni-NTA resin (Qiagen, Germantown, Md.).
The assay for Nampt catalytic activity was constructed based on a previously published coupled enzyme fluorometric technique, which employs NADH as ultimate analyte (Revollo, J. R. et al. Biol. Chem. 279, 50754-50763 (2004)). A substantial improvement in assay sensitivity was achieved by switching from direct detection to a resazurin/diaphorase-based fluorometric detection system for NADH (Guilbault, G. G., and Kramer, D. N. Anal. Chem. 37, 1219-1221 (1965)). The standard inhibition analyses were performed in a real-time mode in 96-well microtiter plates using 50 mM Tris-HCl, pH 7.5, 1% DMSO (v/v), 0.01% Triton X-100 (v/v), 10 mM MgCl2, 2 mM ATP, 3 μM NAM, 8 μM PRPP, […], as well as the following detection reagents: 5 nM Nmnat, 200 nM Ugdh, 200 μM UDP-glucose, 0.02 U/mL diaphorase and 0.25 μM resazurin. Incubation of samples at room temperature for up to 3 hours was followed by quantification of fluorescence intensities at excitation and emission wavelengths of 510 nm and 590 nm, respectively, using Gemini XS plate reader (Molecular Devices, Sunnyvale, Calif.). The counter-assay intended to disqualify false positives, such as inhibitors of detection enzymes or fluorescence quenchers, was carried out essentially as described above with an exception that 1 μM NaMN was substituted for Nampt.

| Structure (SMILES) | IC50 |
| --- | --- |
| O=C(NCc1cccnc1)Nc1ccc(-n2cc(CCN3CCC(F)CC3)c3ccccc32)cc1 [Compound 147, 1-(4-{3-[2-(4-Fluoropiperidin-1-yl)ethyl]-1H-indol-1-yl}phenyl)-3-(pyridin-3-ylmethyl)urea] | < 1 nM |
| CC1CCN(CCc2cn(-c3ccc(NC(=O)NCc4cccnc4)cc3)c3ccccc23)CC1 [Compound 148, 1-(4-{3-[2-(4-Methylpiperidin-1-yl)ethyl]-1H-indol-1-yl}phenyl)-3-(pyridin-3-ylmethyl)urea] | < 1 nM |
| NCCc1cn(-c2ccc(NC(=O)NCc3cccnc3)cc2)c2ccccc12 [Compound 150, 1-{4-[3-(2-Aminoethyl)-1H-indol-1-yl]phenyl}-3-(pyridin-3-ylmethyl)urea] | < 1 nM |
| CC1CCCC(C)N1CCc1cn(-c2ccc(NC(=O)NCc3cccnc3)cn2)c2ccccc12 (stereo not drawn) [Compound 151, l-(6-{3-[2-(2,6-Dimethylpiperidin-1-yl)ethyl]-1H-indol-1-yl}pyridin-3-yl)-3-(pyridin-3-ylmethyl)urea] | < 1 nM |
| CC(C)N(CCc1cn(-c2ccc(NC(=O)NCc3cccnc3)cn2)c2ccccc12)C(C)C [Compound 152, 1-(6-{3-[2-(Dipropan-2-ylamino)ethyl]-1H-indol-1-yl}pyridin-3-yl)-3-(pyridin-3-ylmethyl)urea] | < 1 nM |
